This assay has as its system P388 leukemia ip, CD2F1 mice, survival T/C. Description: NCI In Vivo Anticancer Drug Screen. Data for tumor model P388 Leukemia (intraperitoneal) in CD2F1 (CDF1) mice. To be noted: T/C endpoint: median survival time, higher T/C = longer survival.
[1] abbreviates: dose: 200.0 mg/kg/injection, schedule: Q04DX003 (ip), vehicle: saline with Tween-80.
Where [2] appears, read: dose: 200.0 mg/kg/injection, schedule: Q01DX009 (ip), vehicle: saline.
Setting [3] is: dose: 200.0 mg/kg/injection, schedule: Q01DX005 (ip), vehicle: saline with Tween-80.
[4] abbreviates: dose: 240.0 mg/kg/injection, schedule: Q01DX005 (ip), vehicle: saline with Tween-80.
The mark [5] stands for this setting: dose: 200.0 mg/kg/injection, schedule: Q01DX009 (ip), vehicle: saline with Tween-80.
Where [6] appears, read: dose: 100.0 mg/kg/injection, schedule: Q01DX009 (ip), vehicle: saline with Tween-80.

Structures are written as SMILES. The list does not hold the whole screen: it gathers tests that were run many times, whatever their T/C, doses with no T/C, and many T/C values between a quarter and a half above the control. Further doses and runs are listed elsewhere. T/C: endpoint of the treated group in % of that of the vehicle group. Some entries give survivors of the animals treated and no T/C: the source holds a T/C of zero for them, seemingly a mark for toxic or unscored doses. Some survivor counts are full or nearly so, which does not show that the dose was tolerated: survival well below the control is almost never listed, so the zero probably covers shortened survival too. Survivors were counted at the toxicity check, usually on the fifth day, unless a day is given; later deaths do not show. Schedules are NCI's codes, read here as Q, the interval in days (D) or hours (H), X, the number of doses. Some entries were tested several times; the values are given in rising order. For survival time, this PubChem deposit counts one and a half times the control or more as active, and values a quarter to a half above the control carry no call in these data; other NCI protocols may use other cut-offs.

Turning to `CCC1=C[C@H]2CN(CCc3c([nH]c4ccccc34)[C@@](C(=O)OC)(c3cc4c(cc3OC)N(C)[C@H]3C(C(=O)OC)=C[C@]5(CC)C=CCN6CC[C@]43[C@@H]65)C2)C1`, the T/C is 126 % of control (dose: 16.0 mg/kg/injection, schedule: Q01DX001 (ip), vehicle: other); 146 % of control (dose: 32.0 mg/kg/injection, schedule: Q01DX001 (ip), vehicle: distilled water + Tween-80); 131 and 133 % of control (dose: 32.0 mg/kg/injection, schedule: Q01DX001 (ip), vehicle: other); 127 % of control (dose: 64.0 mg/kg/injection, schedule: Q01DX001 (ip), vehicle: other). In addition, the survivor count by setting is: (dose: 128.0 mg/kg/injection, schedule: Q01DX001 (ip), vehicle: distilled water + Tween-80) 6 of 6; (dose: 512.0 mg/kg/injection, schedule: Q01DX001 (ip), vehicle: distilled water + Tween-80) 0 of 6.
With `CCCCCCCC(C)c1cc(N)c(C)cc1[N+](=O)[O-]` (configuration not stated), the survivor count is on record as 0 of 6 (dose: 100.0 mg/kg/injection, schedule: Q04DX002 (ip), vehicle: Klucel (hydroxypropylcellulose) (HPC)); 0 of 6 (dose: 200.0 mg/kg/injection, schedule: Q04DX002 (ip), vehicle: Klucel (hydroxypropylcellulose) (HPC)); 0 of 6 (dose: 400.0 mg/kg/injection, schedule: Q04DX002 (ip), vehicle: Klucel (hydroxypropylcellulose) (HPC)).
For the compound `CN(c1ccccc1)C1C2=C(CCCC2)OC(=O)C12SCCCS2` (configuration not stated), under setting [1], the T/C is 139 % of control and the survivor count is reported as 3 of 6.
For the compound `O=C1C2=C(Nc3cc([N+](=O)[O-])ccc3N2)OC1c1ccccc1O` (configuration not stated), the survivor count (dose: 120.0 mg/kg/injection, schedule: Q01DX005 (ip), vehicle: Klucel (hydroxypropylcellulose) (HPC)) was 6 of 6.
Regarding `CCN(CC)CCC(=O)/C=C/c1ccccc1`, for the setting “dose: 100.0 mg/kg/injection, schedule: Q01DX009 (ip), vehicle: saline”, the T/C was 126 and 138 % of control. Moreover, the survivor count under setting [2] is given as 0 of 6.
For the compound `C[N+]1(Cc2csc(-c3ccc(Cl)cc3)n2)CCOCC1`, the survivor count (dose: 100.0 mg/kg/injection, schedule: Q01DX009 (ip), vehicle: Klucel (hydroxypropylcellulose) (HPC)) is 1 of 6 and 5 of 6.
Consider `COC(=O)C(Cc1ccccc1)NC(=O)C(CC(C)C)NC(=O)C(CC(C)C)NC(=O)C(N)CC(C)C` (configuration not stated), for which the survivor count under setting [3] was 3 of 6.
For `CC(C)C1=CC23CCC4C(C)(C(=O)O)CCCC4(C)C2CC1C1C(=O)N(CCCN(C)C)C(=O)C13` (configuration not stated), the survivor count under setting [4] is listed as 0 of 6.
For `CC[N+](C)(C)c1ccc(/C=C(/C#N)C(=O)OC)cc1`, the survivor count under setting [5] is 2 of 6.
With `CC(C(=O)O)S(=O)(=O)C(C)C(=O)O` (configuration not stated), for the setting “dose: 400.0 mg/kg/injection, schedule: Q04DX002 (ip), vehicle: saline”, the survivor count is on record as 3 of 6.
`C[S+](C)CCCNC(=O)c1csc(-c2csc(-c3ccccc3)n2)n1`: the survivor count is listed as 0 of 6 (dose: 50.0 mg/kg/injection, schedule: Q01DX005 (ip), vehicle: water); 0 of 6 (dose: 100.0 mg/kg/injection, schedule: Q01DX005 (ip), vehicle: water); 0 of 6 (dose: 200.0 mg/kg/injection, schedule: Q01DX005 (ip), vehicle: water).
`CC(C)C1(C(=O)NNC(=O)CCCc2ccc(N(CCCl)CCCl)cc2)OC2(O)CCCCCN2C1=O` (configuration not stated): the T/C (dose: 25.0 mg/kg/injection, schedule: Q04DX003 (ip), vehicle: Klucel (hydroxypropylcellulose) (HPC)) was 126 % of control and the T/C (dose: 50.0 mg/kg/injection, schedule: Q04DX003 (ip), vehicle: Klucel (hydroxypropylcellulose) (HPC)) was 149 % of control.
With `CC(C)c1ccc(C(O)C2CC2)cc1` (configuration not stated), the survivor count under setting [1] was 3 of 6.
In the case of `CCC1CN2CCc3cc(OC)c(OC)cc3C2CC1CC1c2cc(OC)c(OC)cc2CCN1C(=O)C(Cc1c[nH]c2ccccc12)NC(=O)OC(C)(C)C` (configuration not stated), the T/C under setting [6] was 130 % of control. For the same compound, the survivor count is given as 6 of 6 under setting [6]; 5 of 6 (dose: 150.0 mg/kg/injection, schedule: Q01DX009 (ip), vehicle: saline with Tween-80); 6 of 6 under setting [1]; 0 of 6 (dose: 400.0 mg/kg/injection, schedule: Q04DX003 (ip), vehicle: saline with Tween-80).
Take `C[n+]1ccc2ccccc2c1SC1CCC2CC3CC2C1C3` (configuration not stated): the survivor count runs as follows: (dose: 30.0 mg/kg/injection, schedule: Q01DX005 (ip), vehicle: saline with Tween-80) 1 of 6; (dose: 60.0 mg/kg/injection, schedule: Q01DX005 (ip), vehicle: saline with Tween-80) 2 of 6; (dose: 120.0 mg/kg/injection, schedule: Q01DX005 (ip), vehicle: saline with Tween-80) 0 of 6; under setting [4], 0 of 6.
With `C/C(=N\NC(=O)c1ccncc1)c1cccc(/C(C)=N/NC(=O)c2ccncc2)n1.O=S(=O)([O-])[O-].[Fe+2]`, the survivor count is on record as 6 of 6 (dose: 100.0 mg/kg/injection, schedule: Q01DX005 (ip), vehicle: saline with Tween-80) and 2 of 6 under setting [3].
With `CCCCOCN(CCCN(C)C)COCCCC`, the T/C is, setting by setting: (dose: 50.0 mg/kg/injection, schedule: Q01DX009 (ip), vehicle: saline with Tween-80) 127 % of control; under setting [6], 130 % of control. Under setting [5], the survivor count is given as 5 of 6.
For the compound `CCCSCCNC(=O)C1(O)C(O)C2(CC)C=CCN3CCC4(c5cc(C6(OC(C)=O)CC7C=C(CC)CN(CCc8c6[nH]c6ccccc86)C7)c(OC)cc5N(C)C14)C32` (configuration not stated), the T/C was 130 % of control (dose: 1.0 mg/kg/injection, schedule: Q01DX001 (ip), vehicle: water); 133 % of control (dose: 2.0 mg/kg/injection, schedule: Q01DX001 (ip), vehicle: water); 134 % of control (dose: 4.0 mg/kg/injection, schedule: Q01DX001 (ip), vehicle: water); 139 % of control (dose: 8.0 mg/kg/injection, schedule: Q01DX001 (ip), vehicle: water). Moreover, for the setting “dose: 32.0 mg/kg/injection, schedule: Q01DX001 (ip), vehicle: water”, the survivor count is 2 of 6.
For the compound `CC1(CCl)COP(=O)(NN)OC1` (configuration not stated), the survivor count (dose: 240.0 mg/kg/injection, schedule: Q01DX005 (ip), vehicle: saline) was 4 of 6.
With `Cc1cc2ccccc2c2nncn12`, the survivor count under setting [5] was 0 of 6.
As for `CCCCCCCC/C=C\CCCCCCCCN1CCOCC1`, the survivor count under setting [2] is reported as 2 of 6.

The values are drawn from PubChem BioAssay AID330 (DTP/NCI, 2004).
